Source: PMC8610286

The chains behind the UniProt entries cited, without tags or fusion partners. Where a name states a change or a piece, a line headed by the entry shows the natural chain unless it says otherwise. Residues count along the entry.
UniProt P56703, residues 22-355: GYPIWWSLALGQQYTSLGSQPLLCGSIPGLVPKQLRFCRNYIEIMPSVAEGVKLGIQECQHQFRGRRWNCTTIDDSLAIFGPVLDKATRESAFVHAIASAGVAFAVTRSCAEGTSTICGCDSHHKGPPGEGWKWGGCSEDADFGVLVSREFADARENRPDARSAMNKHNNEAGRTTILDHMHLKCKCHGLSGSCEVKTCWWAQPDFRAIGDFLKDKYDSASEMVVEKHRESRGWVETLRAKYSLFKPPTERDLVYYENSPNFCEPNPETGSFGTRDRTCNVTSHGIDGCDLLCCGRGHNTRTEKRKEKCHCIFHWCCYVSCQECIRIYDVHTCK
UniProt P15514: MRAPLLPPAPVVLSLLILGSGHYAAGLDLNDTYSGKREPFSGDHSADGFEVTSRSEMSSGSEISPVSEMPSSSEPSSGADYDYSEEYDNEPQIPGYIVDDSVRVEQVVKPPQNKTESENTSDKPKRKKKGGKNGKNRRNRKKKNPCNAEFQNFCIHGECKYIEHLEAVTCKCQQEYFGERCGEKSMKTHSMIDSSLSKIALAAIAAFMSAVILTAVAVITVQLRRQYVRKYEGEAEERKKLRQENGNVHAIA

How the values were obtained:
FLAG-tagged SHC2 = biological target: T1, FLAG-tagged SHC2 (UniProt P98077); experiment: co-IP; LN229 glioblastoma cells co-transfected with an HA-tagged construct of a predicted gene and FLAG-tagged WNT3 or FLAG-tagged SHC2; interactions determined by immunoblotting
T1 sequence: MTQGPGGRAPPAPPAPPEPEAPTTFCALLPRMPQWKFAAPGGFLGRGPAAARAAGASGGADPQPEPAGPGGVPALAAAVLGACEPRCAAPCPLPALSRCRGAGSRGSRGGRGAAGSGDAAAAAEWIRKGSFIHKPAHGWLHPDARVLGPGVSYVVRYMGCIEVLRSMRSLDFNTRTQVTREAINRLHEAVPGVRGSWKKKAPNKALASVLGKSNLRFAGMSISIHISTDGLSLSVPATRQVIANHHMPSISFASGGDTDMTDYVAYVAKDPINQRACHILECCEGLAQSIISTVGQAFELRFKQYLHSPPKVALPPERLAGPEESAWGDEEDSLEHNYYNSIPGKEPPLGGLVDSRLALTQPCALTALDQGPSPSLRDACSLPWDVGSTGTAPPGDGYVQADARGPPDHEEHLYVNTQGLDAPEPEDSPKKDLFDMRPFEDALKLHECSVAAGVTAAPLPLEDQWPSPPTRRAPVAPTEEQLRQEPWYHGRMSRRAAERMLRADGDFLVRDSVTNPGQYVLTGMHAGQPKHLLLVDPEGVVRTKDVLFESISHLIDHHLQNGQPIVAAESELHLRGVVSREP

FLAG-tagged WNT3 = FLAG-tagged WNT3 (UniProt P56703); experiment: as above

binding (FLAG-tagged SHC2): no binding | binding (FLAG-tagged WNT3): binds
Substance: HA-tagged AREG (from UniProt P15514)

No constants are given. Whether binding was seen depends on the method and setting. In cells and extracts the contact can be indirect. For some assays here: Binding calls can cover weak binding; strength is not graded here. For some assays here: Sequences can lack the tags named with a protein.
